These are yes or no findings as the source states them, for the method shown. Binding seen in cells or lysates may run through a third protein. Some binding calls cover weakened binding; strength is not graded here.
Biological target: Flag-SIN1 (UniProt Q9BPZ7)
Assay: co-IP; HEK293T transfected with HA-AKT and Flag-SIN1; starved in amino acid-free medium 1 h, then 50 µM ZnSO4 1 h, alone or with histidine; also PRMT5 WT or knock-down cells; lysate on anti-Flag M2 magnetic beads 4-6 h, immunoblot

Amino acid sequences for entries named in this document (tags omitted).
UniProt Q9BPZ7: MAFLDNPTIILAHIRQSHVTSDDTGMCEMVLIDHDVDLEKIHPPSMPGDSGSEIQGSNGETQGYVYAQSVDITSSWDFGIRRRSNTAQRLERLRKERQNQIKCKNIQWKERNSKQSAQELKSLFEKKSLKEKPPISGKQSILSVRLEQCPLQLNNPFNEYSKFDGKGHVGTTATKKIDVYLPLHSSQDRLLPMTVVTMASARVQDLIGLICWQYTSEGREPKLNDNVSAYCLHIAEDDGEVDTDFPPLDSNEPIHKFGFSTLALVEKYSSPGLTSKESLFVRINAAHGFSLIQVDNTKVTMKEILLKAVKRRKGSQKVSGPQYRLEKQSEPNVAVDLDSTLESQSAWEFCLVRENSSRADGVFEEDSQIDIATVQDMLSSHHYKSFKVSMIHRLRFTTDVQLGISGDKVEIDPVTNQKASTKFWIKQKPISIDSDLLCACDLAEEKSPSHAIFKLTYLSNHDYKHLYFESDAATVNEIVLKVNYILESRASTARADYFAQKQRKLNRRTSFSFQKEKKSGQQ
UniProt P31749: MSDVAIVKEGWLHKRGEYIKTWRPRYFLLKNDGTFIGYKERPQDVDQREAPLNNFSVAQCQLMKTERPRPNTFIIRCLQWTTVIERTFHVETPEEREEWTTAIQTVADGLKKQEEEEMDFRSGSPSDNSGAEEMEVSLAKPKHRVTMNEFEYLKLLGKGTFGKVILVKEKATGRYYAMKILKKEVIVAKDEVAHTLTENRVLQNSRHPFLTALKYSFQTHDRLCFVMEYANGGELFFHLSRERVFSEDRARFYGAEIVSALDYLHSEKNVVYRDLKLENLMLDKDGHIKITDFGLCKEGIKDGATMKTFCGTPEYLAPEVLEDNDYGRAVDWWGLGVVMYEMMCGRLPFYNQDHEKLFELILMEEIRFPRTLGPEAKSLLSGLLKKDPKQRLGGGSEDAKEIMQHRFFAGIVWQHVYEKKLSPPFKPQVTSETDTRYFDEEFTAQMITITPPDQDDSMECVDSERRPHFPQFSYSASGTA

binding: binds
Substance: HA-AKT (from UniProt P31749 1-480)
